PubChem BioAssay AID1259254 – NCATS – 2017
In all, the deposit lists about 59,000 reagents; this is a part drawn at random. About 1,550 of them (2.6%) count as active. 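G2 share is only a proxy for re-replication; each gene was hit by three separate siRNAs, and active genes were retested.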 The raw values are shown without normalisation. Entries without a mark were called inactive. The numbers tell different reagents against one gene apart. The record does not give: the amount of reagent.

Screen: 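Gene knock-downs that lead to re-replication, shown by excess G2 DNA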 (primary screen)
Cell system: human HCT116 colorectal cancer cells
Reagents: single siRNA against human genes
Timing: 3 days
Measured: 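Nuclei stained with Hoechst and imaged; cell-cycle phase assigned by DNA content; G2 share scaled per plate, non-targeting siRNA 0%, GMNN siRNA 100%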
Reading the numbers: G2 robust z-score and G2 cells, % of GMNN control: higher = more G2 cells, more excess DNA replication; raw share of cells in G2: higher = larger share of cells with G2 DNA content
Active means: 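Active siRNAs have a G2 robust z of 5 or more median absolute deviations over the median, which in these data means about 38% or higher of GMNN control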

gene	reagent no.	G2 robust z-score	G2 cells, % of GMNN control	raw share of cells in G2 (%)
SNAPC5	1	-1.15	-5.11	3.02
SNAPC5	2	0.872	9.1	7.74
SNAPC5	3	0.491	6.42	5.74
LAMC1	1	0.256	4.77	5.35
LAMC1	2	-0.69	-1.89	3.96
LAMC1	3	2.33	19.4	10.1
TUBA3C	1	-0.425	-0.0219	5.59
TUBA3C	2	-0.489	-0.476	4.32
TUBA3C	3	3.5	27.6	14.5
TRAT1	1	0.347	5.41	5.92
TRAT1	2	0.0454	3.29	5.79
TRAT1	3	-0.475	-0.372	3.14
GSX2	1	-0.129	2.06	5.46
GSX2	2	5.14 (active)	39.1	21.1
GSX2	3	-0.38	0.291	6.1
VPS45	1	-1.21	-5.52	2.82
VPS45	2	0.934	9.54	8.07
VPS45	3	0.161	4.1	4.71
POLR3F	1	0.274	4.9	5.42
POLR3F	2	1.18	11.2	10.9
POLR3F	3	0.99	9.94	10
RHOH	1	2.92	23.5	13.5
RHOH	2	-0.299	0.867	5.01
RHOH	3	3.14	25	13.3
IHH	1	1.16	11.1	9.43
IHH	2	1.4	12.8	9.44
IHH	3	-0.412	0.0684	3.94
DUSP14	1	0.0553	3.36	5.89
DUSP14	2	-0.354	0.479	4.45
DUSP14	3	0.32	5.22	5.07
GHSR	1	1.73	15.1	9.81
GHSR	2	-0.392	0.211	3.33
GHSR	3	3.98	31	16.9
KIF13B	1	6.75 (active)	50.5	26.6
KIF13B	2	0.299	5.07	5.85
KIF13B	3	0.18	4.24	5.32
ABRAXAS1	1	0.203	4.4	5.57
ABRAXAS1	2	0.312	5.16	4.99
ABRAXAS1	3	-0.527	-0.743	2.18

4 entries from above, ordered by “raw share of cells in G2 (%)”, high to low.
gene	reagent no.	G2 robust z-score	G2 cells, % of GMNN control	raw share of cells in G2 (%)
TUBA3C	3	3.5	27.6	14.5
LAMC1	3	2.33	19.4	10.1
TUBA3C	1	-0.425	-0.0219	5.59
TUBA3C	2	-0.489	-0.476	4.32

Further records:
gene	reagent no.	G2 robust z-score	G2 cells, % of GMNN control	raw share of cells in G2 (%)
ADAMTSL2	1	-1.13	-4.97	1.87
ADAMTSL2	2	-1.34	-6.44	3.12
ADAMTSL2	3	1.8	15.6	9.88
CCDC90B	1	0.763	8.34	8.21
CCDC90B	2	-0.212	1.48	5.27
CCDC90B	3	0.732	8.12	4.84
DEFB112	1	-0.588	-1.17	2.82
DEFB112	2	0.425	5.96	5.74
DEFB112	3	-0.263	1.12	3.51
RHOF	1	-0.534	-0.787	3.95
RHOF	2	0.604	7.22	6.57
RHOF	3	1.44	13.1	11.9
MMP20	1	0.824	8.77	8.62
MMP20	2	-0.738	-2.22	4.12
MMP20	3	-0.929	-3.57	2.58
ERLEC1	1	-0.787	-2.57	2.87
ERLEC1	2	-0.46	-0.268	4.45
ERLEC1	3	-0.192	1.62	3.76
NOTCH2	1	1.22	11.5	10
NOTCH2	2	-1.11	-4.81	3.5
NOTCH2	3	-0.547	-0.88	2.9
S1PR5	1	-0.0299	2.76	6.83
S1PR5	2	-0.724	-2.13	3.77
S1PR5	3	-0.218	1.43	3.71
GLT8D1	1	-0.355	0.467	6.63
GLT8D1	2	1.83	15.8	10.1
GLT8D1	3	6.74 (active)	50.4	25.3
GRB14	1	-0.252	1.2	5.86
GRB14	2	-0.216	1.45	4.62
GRB14	3	-0.684	-1.85	2.8
